PubChem BioAssay AID504764 | Drosophila RNAi Screening Center, 2011
The screen tested about 22,000 reagents; this is a random part of those with a known target gene and a result. Over the whole deposit, 403 (1.9%) were called active. 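Unnormalised raw counts per well; ratio z-scores behind the hit calls and whether each hit raises or lowers signal are not deposited.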 A number with no mark means an inactive call. Reagents against one gene are numbered here. Names joined by + are all predicted targets of the reagent. No sequences are given here. Not stated in the record: the amount of reagent.

- Test: 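Knock-downs that raise or lower a Notch target reporter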 (primary screen)
- Cell system: Drosophila Kc167 cells
- Knock-down reagent: long dsRNA against Drosophila genes
- Timing: about 5 days (4 days dsRNA, then 24 h after transfection)
- Treatment: transfection of constitutively active membrane-tethered Notch lacking the extracellular domain, read 24 h later
- Measured: 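Firefly luciferase from an E(spl)m3 reporter with active Notch, plus control-promoter and uninduced reporter wells for normalisation; unnormalised counts, duplicate wells a and b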
- Reading the numbers: induced reporter light, run 1, well a and induced reporter light, run 1, well b: higher = more light from the Notch target reporter with active Notch; control promoter light, run 1, well a and control promoter light, run 1, well b: higher = more light from the viral control promoter (cell number, transfection, viability); uninduced reporter light, run 1, well a: higher = more light from the Notch target reporter without active Notch
- Active means: 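Wells with low control signal or poorly matching duplicates excluded; duplicates averaged; per source plate, z beyond ±2 for induced/control log2 ratio or beyond ±1.8 for induced/uninduced marks a hit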
- Meaning of the calls: active = modifier hit (raised or lowered Notch signal); inactive = not a hit

HP1D3csd (Heterochromatin Protein 1D3 chromoshadow domain)
- induced reporter light, run 1, well a: 69580
- induced reporter light, run 1, well b: 81965
- control promoter light, run 1, well a: 80270
- control promoter light, run 1, well b: 98750
- uninduced reporter light, run 1, well a: 10245

CG18301
- induced reporter light, run 1, well a: 1.42e5
- induced reporter light, run 1, well b: 1.63e5
- control promoter light, run 1, well a: 72240
- control promoter light, run 1, well b: 93660
- uninduced reporter light, run 1, well a: 19955

Gdi (GDP dissociation inhibitor)
- induced reporter light, run 1, well a: 2.24e5
- induced reporter light, run 1, well b: 2.26e5
- control promoter light, run 1, well a: 2.29e5
- control promoter light, run 1, well b: 2.07e5
- uninduced reporter light, run 1, well a: 16300

CG15373
- induced reporter light, run 1, well a: 54530
- induced reporter light, run 1, well b: 55430
- control promoter light, run 1, well a: 61905
- control promoter light, run 1, well b: 53835
- uninduced reporter light, run 1, well a: 8475

tub (tube)
- induced reporter light, run 1, well a: 92335
- induced reporter light, run 1, well b: 1.12e5
- control promoter light, run 1, well a: 65435
- control promoter light, run 1, well b: 86405
- uninduced reporter light, run 1, well a: 8335

Naa40 (N(alpha)-acetyltransferase 40)
- induced reporter light, run 1, well a: 1.40e5
- induced reporter light, run 1, well b: 1.52e5
- control promoter light, run 1, well a: 1.70e5
- control promoter light, run 1, well b: 1.75e5
- uninduced reporter light, run 1, well a: 12980

CadN (Cadherin-N)
- induced reporter light, run 1, well a: 1.32e5
- induced reporter light, run 1, well b: 1.56e5
- control promoter light, run 1, well a: 1.29e5
- control promoter light, run 1, well b: 1.60e5
- uninduced reporter light, run 1, well a: 10620

Rab3GAP1 (RAB3 GTPase activating protein subunit 1) #1
- induced reporter light, run 1, well a: 1.05e5
- induced reporter light, run 1, well b: 90585
- control promoter light, run 1, well a: 77710
- control promoter light, run 1, well b: 52590
- uninduced reporter light, run 1, well a: 7990

Rab3GAP1 (RAB3 GTPase activating protein subunit 1) #2
- induced reporter light, run 1, well a: 1.27e5
- induced reporter light, run 1, well b: 1.15e5
- control promoter light, run 1, well a: 1.02e5
- control promoter light, run 1, well b: 68770
- uninduced reporter light, run 1, well a: 10835

DMAP1 (DNA methyltransferase 1 associated protein 1)
- induced reporter light, run 1, well a: 61225 (active)
- induced reporter light, run 1, well b: 69875
- control promoter light, run 1, well a: 1.64e5
- control promoter light, run 1, well b: 2.40e5
- uninduced reporter light, run 1, well a: 5440

pb (proboscipedia) #1
- induced reporter light, run 1, well a: 1.50e5
- induced reporter light, run 1, well b: 1.31e5
- control promoter light, run 1, well a: 1.79e5
- control promoter light, run 1, well b: 1.15e5
- uninduced reporter light, run 1, well a: 10795

pb (proboscipedia) #2
- induced reporter light, run 1, well a: 33620
- induced reporter light, run 1, well b: 29155
- control promoter light, run 1, well a: 18325
- control promoter light, run 1, well b: 16415
- uninduced reporter light, run 1, well a: 3090

CG33493
- induced reporter light, run 1, well a: 1.47e5
- induced reporter light, run 1, well b: 1.45e5
- control promoter light, run 1, well a: 1.74e5
- control promoter light, run 1, well b: 1.83e5
- uninduced reporter light, run 1, well a: 7942

CG10086
- induced reporter light, run 1, well a: 83690
- induced reporter light, run 1, well b: 93300
- control promoter light, run 1, well a: 1.08e5
- control promoter light, run 1, well b: 78930
- uninduced reporter light, run 1, well a: 6090

Socs16D (Suppressor of Cytokine Signaling at 16D)
- induced reporter light, run 1, well a: 25230
- induced reporter light, run 1, well b: 23150
- control promoter light, run 1, well a: 27200
- control promoter light, run 1, well b: 21725
- uninduced reporter light, run 1, well a: 5910

HGTX #1
- induced reporter light, run 1, well a: 1.71e5
- induced reporter light, run 1, well b: 1.85e5
- control promoter light, run 1, well a: 2.02e5
- control promoter light, run 1, well b: 2.38e5
- uninduced reporter light, run 1, well a: 20790

HGTX #2
- induced reporter light, run 1, well a: 1.34e5
- induced reporter light, run 1, well b: 1.19e5
- control promoter light, run 1, well a: 1.76e5
- control promoter light, run 1, well b: 1.77e5
- uninduced reporter light, run 1, well a: 6282

e(y)2b (enhancer of yellow 2b)
- induced reporter light, run 1, well a: 65025
- induced reporter light, run 1, well b: 1.09e5
- control promoter light, run 1, well a: 90095
- control promoter light, run 1, well b: 66505
- uninduced reporter light, run 1, well a: 7795

CG10943
- induced reporter light, run 1, well a: 1.54e5
- induced reporter light, run 1, well b: 1.26e5
- control promoter light, run 1, well a: 1.42e5
- control promoter light, run 1, well b: 1.34e5
- uninduced reporter light, run 1, well a: 6250

Caf1-55 (Chromatin assembly factor 1, p55 subunit)
- induced reporter light, run 1, well a: 15032
- induced reporter light, run 1, well b: 11500
- control promoter light, run 1, well a: 12825
- control promoter light, run 1, well b: 15455
- uninduced reporter light, run 1, well a: 1885

CG13310
- induced reporter light, run 1, well a: 1.02e5 (active)
- induced reporter light, run 1, well b: 79120
- control promoter light, run 1, well a: 65760
- control promoter light, run 1, well b: 66990
- uninduced reporter light, run 1, well a: 4320

Uqcc1 + CG9948
- induced reporter light, run 1, well a: 2.16e5
- induced reporter light, run 1, well b: 2.13e5
- control promoter light, run 1, well a: 2.78e5
- control promoter light, run 1, well b: 3.02e5
- uninduced reporter light, run 1, well a: 12920

CG13561
- induced reporter light, run 1, well a: 1.63e5
- induced reporter light, run 1, well b: 1.58e5
- control promoter light, run 1, well a: 1.45e5
- control promoter light, run 1, well b: 1.57e5
- uninduced reporter light, run 1, well a: 12650

Edc3 (Enhancer of decapping 3)
- induced reporter light, run 1, well a: 1.31e5
- induced reporter light, run 1, well b: 1.26e5
- control promoter light, run 1, well a: 59925
- control promoter light, run 1, well b: 72785
- uninduced reporter light, run 1, well a: 9395

Records above with an active call (2):
DMAP1 (DNA methyltransferase 1 associated protein 1)
- induced reporter light, run 1, well a: 61225 (active)
- induced reporter light, run 1, well b: 69875
- control promoter light, run 1, well a: 1.64e5
- control promoter light, run 1, well b: 2.40e5
- uninduced reporter light, run 1, well a: 5440

CG13310
- induced reporter light, run 1, well a: 1.02e5 (active)
- induced reporter light, run 1, well b: 79120
- control promoter light, run 1, well a: 65760
- control promoter light, run 1, well b: 66990
- uninduced reporter light, run 1, well a: 4320
